Laboratory results: the supplement of paper PMC10849652
Some of the results follow.

Sequences of proteins named here, by UniProt entry; tags and fusion partners are left off. A change or cut given only in a name is not applied to a line headed by its entry.
UniProt Q99956: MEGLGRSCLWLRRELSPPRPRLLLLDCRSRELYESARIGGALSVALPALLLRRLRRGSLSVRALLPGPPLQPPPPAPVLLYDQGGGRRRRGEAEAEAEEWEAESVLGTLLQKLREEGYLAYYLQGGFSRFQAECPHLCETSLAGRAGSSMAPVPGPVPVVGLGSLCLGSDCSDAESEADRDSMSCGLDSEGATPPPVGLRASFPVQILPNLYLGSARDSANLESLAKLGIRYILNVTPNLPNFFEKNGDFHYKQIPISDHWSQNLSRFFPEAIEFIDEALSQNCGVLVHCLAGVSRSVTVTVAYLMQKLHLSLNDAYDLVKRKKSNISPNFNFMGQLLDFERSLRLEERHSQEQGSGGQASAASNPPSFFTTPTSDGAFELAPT
UniProt Q9H3Z4: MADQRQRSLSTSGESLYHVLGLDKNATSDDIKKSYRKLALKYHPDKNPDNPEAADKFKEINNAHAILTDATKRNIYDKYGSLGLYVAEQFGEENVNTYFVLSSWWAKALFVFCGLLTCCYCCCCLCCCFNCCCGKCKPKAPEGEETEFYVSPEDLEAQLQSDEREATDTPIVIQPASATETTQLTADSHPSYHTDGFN
UniProt Q5JPH6: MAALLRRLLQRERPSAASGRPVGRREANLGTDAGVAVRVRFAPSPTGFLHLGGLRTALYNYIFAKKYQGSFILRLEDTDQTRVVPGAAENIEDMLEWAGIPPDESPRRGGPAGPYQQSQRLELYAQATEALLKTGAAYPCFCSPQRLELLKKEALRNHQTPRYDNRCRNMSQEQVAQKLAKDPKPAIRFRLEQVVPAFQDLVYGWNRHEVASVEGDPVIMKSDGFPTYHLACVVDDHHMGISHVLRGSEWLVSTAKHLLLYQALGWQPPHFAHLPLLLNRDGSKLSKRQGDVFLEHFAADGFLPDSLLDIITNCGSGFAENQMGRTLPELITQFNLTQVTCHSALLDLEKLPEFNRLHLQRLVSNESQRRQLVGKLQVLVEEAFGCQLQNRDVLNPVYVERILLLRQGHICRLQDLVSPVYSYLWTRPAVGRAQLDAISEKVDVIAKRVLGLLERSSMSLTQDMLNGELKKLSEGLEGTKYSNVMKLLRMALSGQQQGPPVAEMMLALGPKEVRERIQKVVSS
UniProt Q99615: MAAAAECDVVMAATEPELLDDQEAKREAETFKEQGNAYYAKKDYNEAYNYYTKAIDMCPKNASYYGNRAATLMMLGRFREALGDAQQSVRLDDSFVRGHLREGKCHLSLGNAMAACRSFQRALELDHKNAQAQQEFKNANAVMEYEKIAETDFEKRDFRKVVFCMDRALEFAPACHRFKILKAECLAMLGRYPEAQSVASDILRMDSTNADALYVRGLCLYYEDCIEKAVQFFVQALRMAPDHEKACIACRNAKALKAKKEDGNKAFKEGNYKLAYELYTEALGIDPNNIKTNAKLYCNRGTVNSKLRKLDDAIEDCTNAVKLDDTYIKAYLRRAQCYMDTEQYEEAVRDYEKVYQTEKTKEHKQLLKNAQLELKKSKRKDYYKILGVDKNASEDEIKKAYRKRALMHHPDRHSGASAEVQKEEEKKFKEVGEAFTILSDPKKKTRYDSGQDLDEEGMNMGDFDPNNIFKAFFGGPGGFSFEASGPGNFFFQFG
UniProt O95147: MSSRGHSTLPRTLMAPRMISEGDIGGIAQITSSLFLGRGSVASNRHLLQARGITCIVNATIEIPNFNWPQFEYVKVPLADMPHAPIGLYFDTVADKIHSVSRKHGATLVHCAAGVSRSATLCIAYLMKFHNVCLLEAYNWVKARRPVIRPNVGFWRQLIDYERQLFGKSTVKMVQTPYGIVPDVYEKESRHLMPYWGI
UniProt P25686: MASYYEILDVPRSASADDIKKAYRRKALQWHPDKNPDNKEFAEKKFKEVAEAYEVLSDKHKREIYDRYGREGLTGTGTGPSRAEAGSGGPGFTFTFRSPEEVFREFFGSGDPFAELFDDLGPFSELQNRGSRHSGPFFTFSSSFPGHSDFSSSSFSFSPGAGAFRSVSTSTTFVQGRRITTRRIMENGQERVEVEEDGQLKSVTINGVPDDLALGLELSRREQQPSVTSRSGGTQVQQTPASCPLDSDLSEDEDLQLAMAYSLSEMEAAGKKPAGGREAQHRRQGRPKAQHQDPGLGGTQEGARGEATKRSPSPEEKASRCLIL
UniProt O77932: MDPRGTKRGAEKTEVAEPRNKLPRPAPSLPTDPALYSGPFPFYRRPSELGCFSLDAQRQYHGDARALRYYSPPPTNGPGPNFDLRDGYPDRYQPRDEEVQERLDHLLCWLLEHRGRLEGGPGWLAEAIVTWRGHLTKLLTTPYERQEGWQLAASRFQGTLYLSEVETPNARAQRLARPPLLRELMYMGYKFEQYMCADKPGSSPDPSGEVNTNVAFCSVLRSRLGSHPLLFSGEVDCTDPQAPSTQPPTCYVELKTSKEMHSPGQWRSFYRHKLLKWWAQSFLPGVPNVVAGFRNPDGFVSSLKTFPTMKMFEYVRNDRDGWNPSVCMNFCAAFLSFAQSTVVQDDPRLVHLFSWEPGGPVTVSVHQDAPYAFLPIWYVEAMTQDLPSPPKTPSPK
UniProt O14641: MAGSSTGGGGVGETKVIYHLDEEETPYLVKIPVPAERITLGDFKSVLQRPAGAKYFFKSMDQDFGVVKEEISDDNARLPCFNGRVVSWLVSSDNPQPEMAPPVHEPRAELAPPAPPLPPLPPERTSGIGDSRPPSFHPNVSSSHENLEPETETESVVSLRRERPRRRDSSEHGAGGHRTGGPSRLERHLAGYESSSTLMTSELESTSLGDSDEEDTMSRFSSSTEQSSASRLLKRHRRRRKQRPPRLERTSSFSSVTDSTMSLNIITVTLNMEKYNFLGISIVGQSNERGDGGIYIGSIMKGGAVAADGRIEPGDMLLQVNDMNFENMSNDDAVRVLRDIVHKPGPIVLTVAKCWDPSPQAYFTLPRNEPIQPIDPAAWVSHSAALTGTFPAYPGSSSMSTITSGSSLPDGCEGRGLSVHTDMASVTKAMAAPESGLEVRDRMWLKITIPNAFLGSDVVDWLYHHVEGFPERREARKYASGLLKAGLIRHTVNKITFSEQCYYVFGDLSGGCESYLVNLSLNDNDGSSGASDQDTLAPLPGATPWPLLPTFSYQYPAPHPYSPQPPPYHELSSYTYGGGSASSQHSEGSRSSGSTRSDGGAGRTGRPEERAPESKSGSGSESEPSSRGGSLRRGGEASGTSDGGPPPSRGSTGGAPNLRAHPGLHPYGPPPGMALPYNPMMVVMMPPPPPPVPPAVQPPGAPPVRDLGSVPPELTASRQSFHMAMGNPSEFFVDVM
UniProt Q5SXM8: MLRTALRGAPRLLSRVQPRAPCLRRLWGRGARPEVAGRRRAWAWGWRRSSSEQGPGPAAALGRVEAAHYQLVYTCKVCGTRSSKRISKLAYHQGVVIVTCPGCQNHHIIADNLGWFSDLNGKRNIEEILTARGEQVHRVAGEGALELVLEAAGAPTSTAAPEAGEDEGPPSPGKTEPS
UniProt Q9UBS3: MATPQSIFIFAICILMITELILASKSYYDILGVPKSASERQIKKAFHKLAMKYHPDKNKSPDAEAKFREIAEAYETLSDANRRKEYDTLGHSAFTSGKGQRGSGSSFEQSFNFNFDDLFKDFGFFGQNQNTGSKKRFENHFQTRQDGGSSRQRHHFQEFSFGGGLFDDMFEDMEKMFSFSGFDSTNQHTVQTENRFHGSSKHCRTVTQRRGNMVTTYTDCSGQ
UniProt Q4LDG9: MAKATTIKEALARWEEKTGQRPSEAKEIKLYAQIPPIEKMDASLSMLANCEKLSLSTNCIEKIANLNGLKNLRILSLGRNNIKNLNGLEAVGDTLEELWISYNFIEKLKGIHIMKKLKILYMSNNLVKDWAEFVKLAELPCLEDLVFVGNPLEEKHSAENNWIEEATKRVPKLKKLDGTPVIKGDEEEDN
UniProt Q96LL9: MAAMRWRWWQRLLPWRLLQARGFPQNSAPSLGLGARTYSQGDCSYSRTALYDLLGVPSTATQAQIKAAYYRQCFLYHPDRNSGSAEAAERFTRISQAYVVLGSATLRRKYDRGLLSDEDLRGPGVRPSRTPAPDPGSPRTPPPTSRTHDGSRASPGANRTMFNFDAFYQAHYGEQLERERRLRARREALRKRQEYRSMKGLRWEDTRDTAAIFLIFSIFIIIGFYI
UniProt Q5JWR5: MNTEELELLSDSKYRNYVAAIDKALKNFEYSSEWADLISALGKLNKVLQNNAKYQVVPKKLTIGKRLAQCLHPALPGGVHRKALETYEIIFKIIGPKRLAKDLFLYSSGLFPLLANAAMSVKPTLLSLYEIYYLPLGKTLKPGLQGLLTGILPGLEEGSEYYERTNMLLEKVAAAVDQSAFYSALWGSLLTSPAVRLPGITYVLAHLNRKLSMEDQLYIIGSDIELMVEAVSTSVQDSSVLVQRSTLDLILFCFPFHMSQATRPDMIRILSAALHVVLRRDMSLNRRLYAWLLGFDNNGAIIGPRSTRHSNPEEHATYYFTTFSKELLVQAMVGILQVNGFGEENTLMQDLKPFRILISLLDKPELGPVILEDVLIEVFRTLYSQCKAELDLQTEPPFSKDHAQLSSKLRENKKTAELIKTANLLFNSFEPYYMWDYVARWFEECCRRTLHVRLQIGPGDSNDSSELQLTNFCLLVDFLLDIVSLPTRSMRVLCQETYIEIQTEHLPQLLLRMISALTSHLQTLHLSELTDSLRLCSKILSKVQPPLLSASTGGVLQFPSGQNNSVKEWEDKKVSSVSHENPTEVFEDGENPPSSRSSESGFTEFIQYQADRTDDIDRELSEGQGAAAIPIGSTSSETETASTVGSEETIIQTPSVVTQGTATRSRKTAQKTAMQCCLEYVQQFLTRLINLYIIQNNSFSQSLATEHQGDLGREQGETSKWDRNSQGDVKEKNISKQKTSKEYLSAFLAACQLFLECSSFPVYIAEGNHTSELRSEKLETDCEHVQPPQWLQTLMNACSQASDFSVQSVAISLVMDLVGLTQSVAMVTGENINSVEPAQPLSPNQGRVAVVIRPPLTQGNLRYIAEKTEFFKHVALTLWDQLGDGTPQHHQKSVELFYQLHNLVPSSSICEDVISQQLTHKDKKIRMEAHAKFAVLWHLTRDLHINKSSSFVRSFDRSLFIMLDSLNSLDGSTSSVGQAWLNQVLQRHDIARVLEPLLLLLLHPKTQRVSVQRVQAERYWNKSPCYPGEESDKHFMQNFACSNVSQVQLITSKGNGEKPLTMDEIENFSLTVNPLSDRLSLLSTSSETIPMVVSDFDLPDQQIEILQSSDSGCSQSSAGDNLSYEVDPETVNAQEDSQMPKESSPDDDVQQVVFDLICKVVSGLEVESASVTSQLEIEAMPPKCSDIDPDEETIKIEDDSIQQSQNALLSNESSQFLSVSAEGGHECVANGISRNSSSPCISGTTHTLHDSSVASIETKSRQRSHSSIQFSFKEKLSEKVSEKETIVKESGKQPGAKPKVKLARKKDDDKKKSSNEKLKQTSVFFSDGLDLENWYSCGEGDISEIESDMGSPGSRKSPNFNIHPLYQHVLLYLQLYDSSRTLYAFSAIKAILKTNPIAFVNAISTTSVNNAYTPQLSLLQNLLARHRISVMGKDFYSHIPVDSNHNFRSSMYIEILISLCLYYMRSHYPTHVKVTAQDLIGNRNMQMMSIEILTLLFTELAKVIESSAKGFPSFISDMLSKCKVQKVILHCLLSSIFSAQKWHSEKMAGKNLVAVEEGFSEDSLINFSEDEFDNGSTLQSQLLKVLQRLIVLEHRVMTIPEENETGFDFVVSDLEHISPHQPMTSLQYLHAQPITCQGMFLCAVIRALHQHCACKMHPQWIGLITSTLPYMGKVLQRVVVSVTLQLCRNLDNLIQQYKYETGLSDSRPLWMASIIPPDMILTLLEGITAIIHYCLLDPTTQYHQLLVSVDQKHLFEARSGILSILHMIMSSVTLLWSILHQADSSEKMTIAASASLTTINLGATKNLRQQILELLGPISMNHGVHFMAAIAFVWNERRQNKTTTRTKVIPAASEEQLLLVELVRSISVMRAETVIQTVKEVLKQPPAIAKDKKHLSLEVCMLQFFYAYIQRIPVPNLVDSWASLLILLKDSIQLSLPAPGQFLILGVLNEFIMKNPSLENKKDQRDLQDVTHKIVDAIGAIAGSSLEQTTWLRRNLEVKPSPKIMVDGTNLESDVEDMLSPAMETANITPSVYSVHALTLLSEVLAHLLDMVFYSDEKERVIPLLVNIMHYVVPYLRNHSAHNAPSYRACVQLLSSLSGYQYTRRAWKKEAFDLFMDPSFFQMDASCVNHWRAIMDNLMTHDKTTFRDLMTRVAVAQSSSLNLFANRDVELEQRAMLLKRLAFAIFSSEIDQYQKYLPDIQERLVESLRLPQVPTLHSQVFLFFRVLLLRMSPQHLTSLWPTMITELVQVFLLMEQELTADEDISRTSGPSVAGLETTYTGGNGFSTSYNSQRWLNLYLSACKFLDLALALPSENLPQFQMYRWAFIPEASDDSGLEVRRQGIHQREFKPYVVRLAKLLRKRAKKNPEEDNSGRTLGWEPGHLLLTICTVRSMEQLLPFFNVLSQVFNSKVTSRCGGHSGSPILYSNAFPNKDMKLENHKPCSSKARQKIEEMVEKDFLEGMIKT

Legend:
Assay in all cases: log2 fold change, soluble protein after heating vs DMSO (PISA); higher = thermal stabilisation; K562 cells, 10 uM, 30 min; active = over 0.2 and 3.5 SD of the protein, either way, in both replicates (recomputed)
[1] = compound: CS(=O)(=O)c1ccc(-c2cnc(N)c(C(=O)Nc3ccccc3)n2)cc1
Method in brief: (§1)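 For each measurement, 10 μM compound was applied for 30 min to K562 cells at 2×10^6 cells/mL. Aliquots were heated for 3 min across 48°C-58°C, pooled, and extracted in PBS with 0.5% NP-40 at 4°C; the supernatant after 21,000xg for 90 min was soluble protein. This was quantified by TMTpro 16plex LC-MS/MS with channel sums equalised, and thermal stability was reported relative to control samples from duplicates, on a log2 fold-change scale.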

crizotinib = compound: C[C@@H](Oc1cc(-c2cnn(C3CCNCC3)c2)cnc1N)c1c(Cl)ccc(F)c1Cl [crizotinib]
Method in brief: as §1

[2] = compound: C[C@@H]1COCCN1C2=NC(=NC(=C2)C3(CC3)S(=O)(=O)C)C4=C5C=CNC5=CC=C4
Method in brief: as §1

doramapimod = compound: Cc1ccc(-n2nc(C(C)(C)C)cc2NC(=O)Nc2ccc(OCCN3CCOCC3)c3ccccc23)cc1 [doramapimod]
Method in brief: as §1

duvelisib = compound: C[C@H](Nc1ncnc2nc[nH]c12)c1cc2cccc(Cl)c2c(=O)n1-c1ccccc1 [duvelisib]
Method in brief: as §1

[3] = compound: Cc1cc(SCc2sc(-c3ccc(C(F)(F)F)cc3)nc2C)ccc1OCC(=O)O
Method in brief: as §1

ispinesib = compound: Cc1ccc(C(=O)N(CCCN)[C@@H](c2nc3cc(Cl)ccc3c(=O)n2Cc2ccccc2)C(C)C)cc1 [ispinesib]
Method in brief: as §1

[4] = compound: C[C@H](C1=CC=C(C=C1)C(=O)NC2=C3C=CNC3=NC=C2)N
Method in brief: as §1

gandotinib = compound: Cc1cc(Nc2cc(CN3CCOCC3)c3nc(C)c(Cc4ccc(Cl)cc4F)n3n2)n[nH]1 [gandotinib]
Method in brief: as §1

tozasertib = compound: Cc1cc(Nc2cc(N3CCN(C)CC3)nc(Sc3ccc(NC(=O)C4CC4)cc3)n2)n[nH]1 [tozasertib]
Method in brief: as §1

Measured: log2 fold change

DUSP12 (UniProt V9GYV5)
inactive: [1] -0.282 | crizotinib -0.032 | [2] 0.105 | doramapimod -0.014

DUSP9 (UniProt Q99956)
inactive: [1] 0.278 | crizotinib -0.02 | [2] 0.078 | duvelisib -0.007 | [3] 0.119 | doramapimod 0.478 | ispinesib 0.001

DSN1 (UniProt Q9H410)
inactive: [1] -0.015 | crizotinib -0.016 | [2] 0.086 | [4] -0.05 | [3] -0.07 | doramapimod 0.007 | ispinesib 0.055

DNAJC5 (UniProt Q9H3Z4)
inactive: [1] 0.056 | crizotinib 0.192 | [2] -0.083 | duvelisib -0.103 | gandotinib 0.035 | tozasertib -0.123 | [3] 0.041 | doramapimod -0.071 | ispinesib 0.088

DNM2 (UniProt P50570)
inactive: [1] 0.017 | crizotinib -0.082 | [2] 0.062 | [4] -0.021 | gandotinib -0.06 | [3] 0.039 | doramapimod -0.039 | ispinesib -0.01

EARS2 isoform 2 (UniProt Q5JPH6)
inactive: [1] 0.091 | crizotinib 0.046 | [2] 0.221 | duvelisib 0.157 | tozasertib -0.037 | [3] 0.145 | doramapimod -0.017 | ispinesib 0.139

EDEM2 (UniProt Q9BV94)
inactive: [1] 0.036 | crizotinib 0.024 | [2] -0.119 | [4] 0.163 | gandotinib -0.081 | [3] 0.111 | doramapimod 0.065 | ispinesib -0.04

DNM1L isoform 2 (UniProt O00429)
inactive: [1] -0.043 | crizotinib -0.081 | [4] 0.133 | duvelisib -0.364 | gandotinib 0.118 | tozasertib -0.021 | [3] 0.181 | doramapimod 0.058 | ispinesib 0.056

ECPAS (UniProt Q5VYK3)
inactive: [1] 0 | crizotinib -0.18 | [2] 0.01 | [4] 0.081 | gandotinib -0.115 | [3] 0.099 | doramapimod -0.032 | ispinesib -0.016

DNTTIP2 (UniProt Q5QJE6)
inactive: [1] 0.012 | crizotinib -0.028 | [2] -0.051 | [4] 0.268 | gandotinib 0.107 | [3] 0.052 | doramapimod 0.129 | ispinesib -0.093

DNAJC7 (UniProt Q99615)
inactive: [1] 0.027 | crizotinib -0.014 | [2] 0.048 | [4] -0.028 | gandotinib -0.088 | [3] 0.095 | doramapimod -0.057 | ispinesib 0.001

3 consecutive records from above, for reference:
EDEM2 (UniProt Q9BV94)
inactive: [1] 0.036 | crizotinib 0.024 | [2] -0.119 | [4] 0.163 | gandotinib -0.081 | [3] 0.111 | doramapimod 0.065 | ispinesib -0.04

DNM1L isoform 2 (UniProt O00429)
inactive: [1] -0.043 | crizotinib -0.081 | [4] 0.133 | duvelisib -0.364 | gandotinib 0.118 | tozasertib -0.021 | [3] 0.181 | doramapimod 0.058 | ispinesib 0.056

ECPAS (UniProt Q5VYK3)
inactive: [1] 0 | crizotinib -0.18 | [2] 0.01 | [4] 0.081 | gandotinib -0.115 | [3] 0.099 | doramapimod -0.032 | ispinesib -0.016

(cont.)

DOCK11, A0A0J9YW64
inactive: [1] 0.206 | crizotinib 0.19 | doramapimod 0.032

DUSP14 (UniProt O95147)
inactive: [2] -0.382 | [4] 0.076 | duvelisib -0.185 | gandotinib -0.215 | tozasertib 0.035 | [3] 0.106

DPCD (UniProt Q9BVM2)
inactive: crizotinib -0.173 | gandotinib 0.02 | doramapimod -0.183

DOLPP1 (UniProt Q86YN1)
active: ispinesib 0.358
inactive: crizotinib -0.082 | [4] -0.135 | doramapimod -0.026

DPY19L2 (UniProt Q6NUT2)
inactive: crizotinib 0.104 | gandotinib -0.082 | tozasertib 0.09 | doramapimod -0.04

DNAJB2 (UniProt P25686)
inactive: [2] -0.08 | duvelisib 0.084 | gandotinib -0.065 | [3] 0.005 | ispinesib 0.01

DNAJB14 (UniProt H7C494)
inactive: crizotinib 0.079 | duvelisib 0.099 | gandotinib -0.109 | [3] -0.032 | doramapimod 0.001

DYNLT3 (UniProt P51808)
inactive: [4] -0.088

DXO (UniProt O77932)
inactive: crizotinib 0.022 | [2] 0.093 | [4] 0 | duvelisib 0.223 | gandotinib -0.119 | tozasertib -0.075 | [3] -0.059 | doramapimod -0.001 | ispinesib -0.053

ECT2 isoform 3 (UniProt Q9H8V3)
inactive: [1] -0.057 | [2] -0.112 | ispinesib -0.035

DNAJB1 (UniProt M0R128)
inactive: [4] -0.018

DOCK2 (UniProt Q92608)
inactive: ispinesib -0.332

DNAJC25 (UniProt Q9H1X3)
inactive: crizotinib -0.214 | tozasertib -0.064 | doramapimod -0.089

ECM1 isoform 2 (UniProt Q16610)
inactive: tozasertib 0.279

DRAP1 (UniProt E9PQX9)
inactive: tozasertib -0.119

EDRF1 (UniProt Q3B7T1)
inactive: [1] 0.024 | [2] 0.055 | [4] -0.008 | gandotinib 0.098 | [3] 0.134 | ispinesib -0.24

DVL2 (UniProt O14641)
inactive: [1] 0.103 | [2] -0.084 | gandotinib 0.347

DNLZ (UniProt Q5SXM8)
inactive: [1] -0.024 | [2] 0.108 | [4] -0.012 | duvelisib 0.014 | tozasertib -0.007 | [3] -0.081 | ispinesib 0.004

DNAJB9 (UniProt Q9UBS3)
inactive: gandotinib 0.196

DNPH1 (UniProt H0Y8X4)
inactive: [4] -0.053 | duvelisib -0.007 | tozasertib -0.009 | [3] 0.174 | ispinesib -0.001

DPYSL3 isoform 2 (UniProt Q14195)
inactive: duvelisib 0.492 | gandotinib -0.137 | [3] 0.257

DNM1 (UniProt Q05193)
inactive: [2] -0.174 | gandotinib -0.2

DYNC1I1 (UniProt O14576)
inactive: [2] 0.14 | ispinesib 0.149

DNAJC4 (UniProt Q9NNZ3)
inactive: ispinesib -0.178

DOCK1 (UniProt Q14185)
inactive: [1] 0.09 | [2] 0.034 | [4] 0.367 | duvelisib 0.237 | [3] -0.085 | ispinesib -0.198

DOCK10 (UniProt Q96BY6)
inactive: crizotinib 0.049 | tozasertib -0.104 | doramapimod 0.011 | ispinesib 0.008

DNAL1 (UniProt Q4LDG9)
inactive: crizotinib -0.035 | [2] 0.011 | [4] 0.025 | [3] -0.102 | doramapimod -0.067 | ispinesib -0.082

DUS1L (UniProt Q6P1R4)
inactive: [4] 0.224 | gandotinib 0.001 | tozasertib 0.085 | ispinesib -0.097

DSTYK (UniProt Q6XUX3)
inactive: [2] 0.216 | [4] 0.018 | duvelisib -0.056 | gandotinib -0.108 | tozasertib -0.05 | [3] -0.048

DNMT3B (UniProt Q9UBC3)
inactive: duvelisib 0.683 | gandotinib 0.05 | [3] 0.388

E4F1 (UniProt H3BN24)
inactive: ispinesib 0.035

DROSHA (UniProt Q9NRR4)
inactive: [2] -0.219 | [4] 0.441 | tozasertib 0.209

DYNC2LI1 isoform 2 (UniProt Q8TCX1)
inactive: [1] -0.004 | [2] 0.101 | [4] 0.077 | ispinesib 0.051

DNAJC30 (UniProt Q96LL9)
inactive: crizotinib 0 | doramapimod -0.043

DOP1A (UniProt Q5JWR5)
inactive: [2] 0.007
